These are yes or no findings as the source states them, for the method shown. Binding seen in cells or lysates may run through a third protein. Some binding calls cover weakened binding; strength is not graded here.
Biological target: T1, aldolase A (ALDOA) (human (endogenous in KGN)) (UniProt P04075)
T1 sequence: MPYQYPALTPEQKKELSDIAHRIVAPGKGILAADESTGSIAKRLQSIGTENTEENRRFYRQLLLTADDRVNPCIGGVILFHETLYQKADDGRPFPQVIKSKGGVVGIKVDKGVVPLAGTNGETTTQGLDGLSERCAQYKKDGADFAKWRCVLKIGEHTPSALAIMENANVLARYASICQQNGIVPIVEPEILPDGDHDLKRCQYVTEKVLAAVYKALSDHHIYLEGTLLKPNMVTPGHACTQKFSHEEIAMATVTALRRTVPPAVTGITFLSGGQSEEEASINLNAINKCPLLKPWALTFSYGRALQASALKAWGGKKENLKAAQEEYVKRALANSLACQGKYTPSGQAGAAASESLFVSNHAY
Assay: co-IP; KGN cells (ZNF674-AS1 silenced and negative control) lysed in Pierce IP lysis buffer; lysates incubated overnight at 4 °C with anti-ALDOA antibodies, Protein A/G magnetic beads 1 h at room temperature; western blot for ATP6V1B2

Chains of the proteins cited; added tags and fusions are not shown.
UniProt P21281: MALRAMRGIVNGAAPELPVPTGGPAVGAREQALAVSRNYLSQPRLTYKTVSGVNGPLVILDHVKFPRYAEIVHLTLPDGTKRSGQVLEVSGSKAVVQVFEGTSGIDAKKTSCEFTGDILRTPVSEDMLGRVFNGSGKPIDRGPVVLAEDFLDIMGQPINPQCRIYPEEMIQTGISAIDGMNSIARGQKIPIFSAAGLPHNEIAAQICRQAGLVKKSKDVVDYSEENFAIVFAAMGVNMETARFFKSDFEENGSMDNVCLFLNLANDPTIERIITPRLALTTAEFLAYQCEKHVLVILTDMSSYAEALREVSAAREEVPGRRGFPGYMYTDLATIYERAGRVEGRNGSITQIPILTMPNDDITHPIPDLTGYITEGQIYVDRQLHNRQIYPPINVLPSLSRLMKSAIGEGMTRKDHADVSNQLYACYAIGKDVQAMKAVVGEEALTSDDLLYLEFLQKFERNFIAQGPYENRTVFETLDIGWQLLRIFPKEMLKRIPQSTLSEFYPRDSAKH

- binding: binds
Substance: ATP6V1B2, a non-catalytic subunit of v-ATPase (from UniProt P21281 1-511)

From paper PMC8124069
